# Data: PubChem BioAssay AID2685 (National Center for Advancing Translational Sciences (NCATS), 2010)
# Screen size: about 320,000 compounds; about 2,100 (0.66%) were called active. Inconclusive results, whose numbers are uncertain, are shown with a selection of clear calls. Calls come from the whole dose curve; as a rule, active = well fitted inhibition curve with a large enough effect in the signal ratio, with a control signal flat (not every such curve was filed as active); inconclusive = small, poorly fitted or top-dose-only effect, or effect the other way, or a change in a side signal; inactive = flat fitted curve, though single readings scatter; the % refers to the signal ratio. A potency beside an inconclusive call is a rough fit, not a confirmed value.
# Experiment: qHTS Assay for Lipid Storage Modulators in Drosophila S3 Cells
# Conditions: BODIPY lipid droplet fluorescence, 18-24 h, cells fed with added oleic acid; lipid storage change, negative = inhibition: at 46.1 µM (top of the series) unless noted
# In short: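 Laser-scanning cytometry quantifies lipid droplet accumulation (500–530 nm total intensity; droplet/cell object ratio) in oleic acid-fed (400 uM added) Drosophila S3 cells treated with a concentration series. 20 uM Triacsin C defined 100% inhibition.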
# % is set by controls: 0 for no effect and ±100 for the full control effect; potency is the fitted concentration of half-maximal effect.
Compound,Potency,"lipid storage change, negative = inhibition"
Cc1cc(N2CCCCC2)n2ncc(-c3ccccc3)c2n1,"inconclusive: 20.6 µM [falling, single point]",
Cc1cc(C)c(C)c(S(=O)(=O)NNC(=O)c2cccc(S(=O)(=O)N3CCOCC3)c2)c1C,"inconclusive: 32.6 µM [falling, single point]",
Cc1nc2ccc(NC(=O)c3ccc([N+](=O)[O-])cc3)cc2s1,,inconclusive: 19.9% [cytotoxic]
CCN1CCN(C(=O)Cn2c(=O)sc3ccccc32)CC1,,inconclusive: -36.9%
O=C(Nc1ccc2c(c1)CCC2)C1CCN(c2c3c(nc4ncnn24)CCC3)CC1,,inconclusive: 30.8%
N#Cc1ccccc1NCc1ccccc1,"inconclusive: 0.13 µM [activator, full curve, poor fit]",
COc1ccc(OCC(=O)Nc2nnc(S(=O)(=O)N3CCCCCC3)s2)cc1,,inconclusive: 22.3%
CCOC(=O)c1cc2c(=O)c3ccccc3oc2nc1C,,inconclusive: 121%
O=C(CSc1ncnc2scc(-c3ccccc3)c12)N1CCN(c2ccccc2F)CC1,,inconclusive: -17.7%
COC(=S)Nc1cccc(C(F)(F)F)c1,"inconclusive: 6.51 µM [cytotoxic, single point]",
Cc1ccc(/C=N/NC(=O)c2ccco2)s1,,inactive
COc1ccc(S(=O)(=O)NC2CCCC2)cc1NC(C)=O,,inactive
O=C(Nc1ccccc1C(=O)Nc1ccc2c(c1)OCO2)c1ccco1,,inconclusive: -10.3%
COc1ccccc1C(=O)COC(=O)Cc1n[nH]c(=O)c2ccccc12,,inconclusive
COc1ccccc1C(=O)Nc1ccc2c(c1)nc1n2CCSC1,"inconclusive: 3.66 µM [activator, partial curve, poor fit]",
CN1CCN(NC(=O)c2cc(Br)ccc2Cl)CC1,"inconclusive: 1.16 µM [falling, full curve]",
CCC(Cc1ccccc1)NS(=O)(=O)c1ccc2c(c1)NC(=O)C(C)S2 (stereo not drawn),,inconclusive: 69.2%
COc1ccc(CCNC2CCN(C)CC2)cc1OC,"inconclusive: 1.3 µM [falling, full curve]",
O=C(c1ccncc1)c1ccc(NS(=O)(=O)c2ccc(Br)s2)cc1,,inconclusive: -67.3%
CCc1ccc(OCC(O)CN2CCN(c3ccc(OC)cc3)CC2)cc1 (stereo not drawn),,inconclusive: -25.7%
COCCn1c(=O)[nH]c(=O)c2c(C(F)(F)F)cc(-c3cccs3)nc21,,inactive
CCCCCOc1ccc(NC(=O)C(=O)NCCCn2ccnc2)cc1,"inconclusive: 6.51 µM [falling, single point]",
COc1ccc(/C=N/NC(=O)c2ccc(COc3cccc4cccnc34)cc2)cc1OC,"inconclusive: 4.11 µM [activator, single point]",
O=[N+]([O-])c1ccc(Cl)c(/C=N/N2CCN(Cc3ccccc3Cl)CC2)c1,"inconclusive: 0.326 µM [activator, single point]",
COc1ccccc1Sc1ccccc1/C=N/NC(N)=O,,inconclusive: 33.2%
Cn1c(CCCOc2ccc(Cl)cc2Cl)nnc1SCC(=O)Nc1nccs1,"inconclusive: 0.13 µM [falling, full curve, poor fit]",

# 4 entries picked at random from the list so far:
Compound,Potency,"lipid storage change, negative = inhibition"
CCc1ccc(OCC(O)CN2CCN(c3ccc(OC)cc3)CC2)cc1 (stereo not drawn),,inconclusive: -25.7%
O=C(CSc1ncnc2scc(-c3ccccc3)c12)N1CCN(c2ccccc2F)CC1,,inconclusive: -17.7%
CCN1CCN(C(=O)Cn2c(=O)sc3ccccc32)CC1,,inconclusive: -36.9%
O=[N+]([O-])c1ccc(Cl)c(/C=N/N2CCN(Cc3ccccc3Cl)CC2)c1,"inconclusive: 0.326 µM [activator, single point]",

# The list goes on.

Compound,Potency,"lipid storage change, negative = inhibition"
Cc1ccc(S(=O)(=O)Nc2ccc(-n3cnnn3)cc2)cc1,,inactive
COc1ccc(C)cc1NC(=O)C1CCCN1S(=O)(=O)c1ccc2c(c1)CCC(=O)N2 (stereo not drawn),,inconclusive: 2.89%
COc1cccc(N2C(=O)c3cccnc3C2O)c1 (stereo not drawn),,inconclusive: 29.6%
COc1ccccc1CNC(=O)C1CCN(c2ncnc3c2nc2n3CCCCC2)CC1,"inconclusive: 29.1 µM [activator, partial curve]",
C=C(C)C1Cc2c(C)nn(-c3nc(C)cc(C)n3)c2C1 (stereo not drawn),,inconclusive: 9.63%
C/C(=N\NC(=S)Nc1ccc(F)cc1)C1CC1,,inconclusive: -18.6%
Cc1cc(C)cc(C(=O)NC(CC(N)=O)c2ccc(N3CCN(c4ccccc4)CC3)c([N+](=O)[O-])c2)c1 (stereo not drawn),,inconclusive: -32.9%
CN1CCN(CC#CCC(O)(c2ccccc2)c2ccccc2)CC1,,inconclusive: -13.5%
CCOC(=O)CCCNC(=O)CCCNC(=O)C(c1ccccc1)c1ccccc1,"inconclusive: 18.4 µM [falling, single point]",
O=C(NCC(c1ccco1)N1CCc2ccccc2C1)c1ccccc1 (stereo not drawn),,inconclusive: 30.2% [activator] [at 0.0737 µM]
O=c1c2ccccc2oc2ccc(NCCCN3CCOCC3)cc12,"inconclusive: 29.1 µM [activator, single point]",
O=C(N/C(=C\c1ccc(Br)cc1)C(=O)N1CCCC1)c1cccs1,,inconclusive: 9.97%
CNC(=S)N1CCN(c2ccc(Cl)c(Cl)c2)CC1,"inconclusive: 32.6 µM [falling, single point]",
C/C(=N\NC(=O)c1nnn(-c2nonc2N)c1CSc1ccccc1)c1cccnc1,,inconclusive: -100%
CCOc1cc(N2CCOCC2)c(OCC)cc1NC(=O)c1c(C)noc1C,,inconclusive: 7.79%
COc1ccc(-c2csc(NC(C)=O)n2)cc1OC,"inconclusive: 1.84 µM [activator, partial curve]",
COc1ccc(Cl)cc1C(=O)n1nc(C)cc1C,,inconclusive: 9.93%
Nc1ncc([N+](=O)[O-])c(Oc2ccccc2F)n1,,inconclusive: -28.2%
COc1ccccc1CNC(=O)CN1C(=O)c2ccc([N+](=O)[O-])cc2C1=O,,inconclusive: 7.02%
COc1ccccc1-c1nc(C#N)c(N2CCC(C(N)=O)CC2)o1,,inconclusive: -1.52%
Cc1onc(C(=O)NCc2ccccn2)c1[N+](=O)[O-],,inconclusive: -8.24%
CC1CCCN(c2nc3ccccc3nc2C(C#N)S(=O)(=O)c2ccccc2)C1 (stereo not drawn),,inconclusive: -11.2%
O=C(NC(=S)N1CCN(Cc2ccc3c(c2)OCO3)CC1)c1cccc(Br)c1,,inconclusive: 133%
CCOc1ccccc1C(=O)Nc1cc(C(=O)NCC(C)C)ccc1Cl,,inconclusive: -6.58%
COc1ccc(Cc2nnc(SCC(=O)Nc3ccc(N4CCOCC4)cc3)n2C)cc1,,inconclusive: 161%
CN(C)c1cc(-c2ccccc2)nc(-c2ccccc2)n1,"inconclusive: 29.1 µM [activator, single point]",

Compound,Potency,"lipid storage change, negative = inhibition"
COC(=O)c1ccc(C(C(=O)NC2CCCCC2)N(Cc2ccc(F)cc2)C(=O)Cc2cccs2)cc1 (stereo not drawn),"inconclusive: 29.1 µM [falling, single point]",
NC(=O)CC(NC(=O)c1ccccc1)c1ccc(N2CCN(c3ccccn3)CC2)c([N+](=O)[O-])c1 (stereo not drawn),"inconclusive: 29.1 µM [activator, single point]",
Cc1cc(C(=O)N2CCN(c3ccccc3)CC2)no1,,inconclusive: 0.252%
C=CCn1c(SCc2ccc(Br)cc2F)nc2cc(C(=O)O)ccc2c1=O,"inconclusive: 0.58 µM [activator, full curve]",
COc1ccc(N2C(=O)NC(NS(=O)(=O)c3ccc(NC(C)=O)cc3)(C(F)(F)F)C2=O)cc1 (stereo not drawn),"inconclusive: 0.411 µM [falling, single point]",
O=C(COc1ccc(Cl)c(Cl)c1)NC1CCS(=O)(=O)C1 (stereo not drawn),,inconclusive: 10.6%
COC(=O)c1c(NC(=O)c2cccc(N3C(=O)CCC3=O)c2)sc2c1CCN(C(C)=O)C2,"inconclusive: 9.2 µM [falling, partial curve, poor fit]",
NC(=O)c1ccccc1N=Cc1ccccn1,,inconclusive: -8.23%
CCOc1ccc(CNC(=O)CCCn2nc(C)c3c(C)n(-c4ccc(C)cc4)nc3c2=O)cc1,"inconclusive: 6.51 µM [activator, single point]",
CC1CCCN(C(=O)Cc2cccc3ccccc23)C1 (stereo not drawn),"inconclusive: 0.58 µM [activator, single point]",
COc1ccccc1Oc1nc([N+](=O)[O-])nn1CC(N)=O,,inactive
Cc1ccc(-c2c(C(=O)N/N=C/c3cccnc3)nnn2-c2nonc2N)cc1,,inconclusive: 26%
Cc1cc(C)nc(SCCN2CCOCC2)n1,"inconclusive: 0.259 µM [falling, full curve, poor fit]",
COc1ccccc1C(=O)Nc1ccc(S(=O)(=O)Nc2onc(C)c2C)cc1,,inconclusive: 15.7%
COc1ccc(C(=O)OC(C)CN2CCOCC2)cc1OC (stereo not drawn),,inconclusive: -8.12%
CCOc1ccccc1CNC(=O)c1ccc2c(c1)N(CC)CCS2,,inconclusive: 4.59%
Cc1cc(C(=O)COC(=O)c2ccc(N)c([N+](=O)[O-])c2)c(C)n1-c1ccc2c(c1)OCO2,,inconclusive: -18.2%
S=c1[nH]nc(COc2ccc3ccccc3c2)o1,,inactive
C=CCn1c(CCc2ccccc2)nnc1SCC(N)=O,"inconclusive: 0.58 µM [activator, single point]",
O=C(Nc1ccnn1C1CCN(Cc2c(F)cccc2Cl)CC1)C1CCCC1,"inconclusive: 29.1 µM [activator, single point]",
Cc1cccc(OCC(=O)Nc2nnc(S(=O)(=O)N3CCCCCC3)s2)c1,,inconclusive: -12.3%
Cc1c(C(=O)NCCCN2CCOCC2)oc2c1C1(CCC2)SCCS1,,inconclusive: 6.72%
CN1C(C(=O)NCc2ccccc2)CC2Cn3c(nc4ccccc43)C21 (stereo not drawn),,inconclusive: 6.21%
CCCCOCCCNC1=NCCCCC1,,inconclusive: -0.709%
O=C(Nc1ccc(S(=O)(=O)NC2=NCCCCC2)cc1)c1cc(F)c(F)cc1Cl,,inconclusive
Cc1ccc(S(=O)(=O)N2Cc3ccccc3CC2C(=O)NC(C)(C)C)cc1 (stereo not drawn),,inconclusive: -41%
